Data: US9980973B2, “Bicyclic heterocycle compounds and their uses in therapy” (ASTEX THERAPEUTICS LIMITED, priority 2012, dated 2018)
Counter-ions that a name gives are not always drawn. Some entries share one result that the patent states for a list of compounds.

Chains of the proteins cited; added tags and fusions are not shown. Residues count along the entry.
UniProt Q13490, 267-363: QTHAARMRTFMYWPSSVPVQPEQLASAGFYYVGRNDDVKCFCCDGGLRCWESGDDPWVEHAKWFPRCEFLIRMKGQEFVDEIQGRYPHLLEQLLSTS
UniProt P98170, 252-350: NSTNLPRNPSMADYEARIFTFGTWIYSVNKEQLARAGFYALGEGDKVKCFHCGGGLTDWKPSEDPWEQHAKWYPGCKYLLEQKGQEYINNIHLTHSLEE

Assays:
[1] = biological target: T1, BIR3 domain of human cIAP-1 (Homo sapiens, UniProt Q13490); test: cIAP-1 in vitro competitive displacement binding assay (fluorescence polarization); conditions: or at least 50% inhibition of the activity at 0.1 μM; read-out: IC50 in the cIAP1 assay
T1 construct: human cIAP-1 (residues 267-363) fused to a GST-tag; GST-tag (cleaved yes); made in house; host or cells: Escherichia coli

[2] = tested on: EVSA-T (human breast carcinoma); test: Anti-proliferative activity, Alamar Blue assay, EVSA-T; assay type: cell-based; conditions: read-out: EC50 in EVSA-T cell line assays
[3] = biological target: T2, BIR3 domain of human XIAP (Homo sapiens, UniProt P98170); test: XIAP in vitro competitive displacement binding assay (fluorescence polarization)
T2 construct: BIR3 domain of human XIAP (residues 252-350) fused to a His-tag; His-tag (cleaved yes); made in house; host or cells: Escherichia coli

[4] = or at least 50% inhibition of the activity at 0.1 μM
[5] = or at least 50% inhibition of the activity at 1 μM

SMILES | IC50 [1] | EC50 [2] | IC50 [3, 4] | IC50 [3, 5]
C[C@@H]1CN(CC(=O)N2CC(C)(C)c3ncc(Cc4ccc(F)cc4)cc32)[C@@H](CN2CCCCC2C(F)(F)F)CN1 (single isomer, unassigned) [Example 26, 1-{6-[(4-Fluorophenyl)methyl]-3,3-dimethyl-1H,2H,3H-pyrrolo[3,2-b]pyridin-1-yl}-2-[(2R,5R)-5-methyl-2-{[2-([R or S]trifluoromethyl)piperidin-1-yl]methyl}piperazin-1-yl]ethan-1-one hydrochloride] | < 100 nM | < 1000 nM |  | 
C[C@@H]1CN(CC(=O)N2CC(C)(C)c3ncc(Cc4ccc(F)cc4)cc32)[C@@H](CN2CCOCC2C(F)(F)F)CN1 (single isomer, unassigned) [Example 27, 1-{6-[(4-Fluorophenyl)methyl]-3,3-dimethyl-1H,2H,3H-pyrrolo[3,2-b]pyridin-1-yl}-2-[(2R,5R)-5-methyl-2-{[3-([R or S]trifluoromethyl)morpholin-4-yl]methyl}piperazin-1-yl]ethan-1-one hydrochloride] | < 100 nM | < 1000 nM |  | 
CC1CC(=O)CCN1C[C@H]1CN[C@H](C)CN1CC(=O)N1CC(C)(C)c2ncc(Cc3ccc(F)cc3)cc21 (single isomer, unassigned) [Example 40, dihydrochloride] |  | < 1000 nM |  | 
COCC1(C)COCCN1C[C@H]1CN[C@H](C)CN1CC(=O)N1CC(C)(C)c2ncc(Cc3ccc(F)cc3)cc21 (single isomer, unassigned) [Example 99, dihydrochloride] | < 100 nM | < 1000 nM |  | 
C[C@@H]1CN(CC(=O)N2CC(C)(C)c3ncc(C(O)c4cccc(F)c4)cc32)[C@@H](CN2[C@H](C)COC[C@H]2C)CN1 (single isomer, unassigned) [Example 106, 2-[(2R,5R)-2-{[(3R,5R)-3,5-Dimethylmorpholin-4-yl]methyl}-5-methylpiperazin-1-yl]-1-{6-[(R or S)-(3-fluorophenyl)-(hydroxy)methyl]-3,3-dimethyl-1H,2H,3H-pyrrolo[3,2-b]pyridin-1-yl}ethan-1-one dihydrochloride] | < 100 nM | < 1000 nM |  | 
C[C@@H]1CN(CC(=O)N2CC(C)(C)c3ncc(C(O)c4ccccc4F)cc32)[C@@H](CN2[C@H](C)COC[C@H]2C)CN1 (single isomer, unassigned) [Example 108, 2-[(2R,5R)-2-{[(3R,5R)-3,5-Dimethylmorpholin-4-yl]methyl}-5-methylpiperazin-1-yl]-1-{6-[(R or S)-(2-fluorophenyl)-(hydroxy)methyl]-3,3-dimethyl-1H,2H,3H-pyrrolo[3,2-b]pyridin-1-yl}ethan-1-one dihydrochloride] | < 100 nM | < 1000 nM | < 100 nM | 
C[C@@H]1CN(CC(=O)N2CC(C)(C)c3ncc(C(O)c4cc(F)ccc4F)cc32)[C@@H](CN2[C@H](C)COC[C@H]2C)CN1 (single isomer, unassigned) [Example 116, 1-{(R or S)-6-[(2,5-Difluorophenyl)(hydroxy)meth-yl]-3,3-dimethyl-1H,2H,3H-pyrrolo[3,2-b]pyridin-1-yl}-2-[(2R,5R)-2-{[(3R,5R)-3,5-dimethylmorpholin-4-yl]methyl}-5-methylpiperazin-1-yl]ethan-1-one dihydrochloride] | < 100 nM | < 1000 nM |  | < 1000 nM
C[C@@H]1CN(CC(=O)N2CC(C)(C)c3ncc(Cc4ccc(F)cc4)cc32)[C@@H](CN2C[C@H](C)NC(=O)[C@H]2C)CN1 [Example 48, (3R,6S)-4-{[(2R,5R)-1-(2-(6-[(4-Fluorophenyl)methyl]-3,3-dimethyl-1H,2H,3H-pyrrolo[3,2-b]pyridin-1-yl}-2-oxoethyl)-5-methylpiperazin-2-yl]methyl}-3,6-dimethylpiperazin-2-one, dihydrochloride] | < 100 nM |  |  | < 1000 nM
C[C@@H]1CN(CC(=O)N2CC(C)(C)c3ccc(Cc4ccc(F)cc4)cc32)[C@@H](CN2[C@H](C)COC[C@H]2C)CN1 [Example 49, 2-[(2R,5R)-2-{[(3R,5R)-3,5-Dimethylmorpholin-4-yl]methyl}-5-methylpiperazin-1-yl]-1-{6-[(4-fluorophenyl)methyl]-3,3-dimethyl-2,3-dihydro-1H-indol-1-yl]ethan-1-one, dihydrochloride] | < 100 nM |  |  | < 1000 nM
C[C@@H]1CN(CC(=O)N2CC(C)(C)c3ncc(Cc4ccc(F)cc4)cc32)[C@@H](CN2CCN(c3ncccn3)C[C@H]2C)CN1 [Example 53, 1-{6-[(4-Fluorophenyl)methyl]-3,3-dimethyl-1H,2H,3H-pyrrolo[3,2-b]pyridin-1-yl}-2-[(2R,5R)-5-methyl-2-{[(2R)-2-methyl-4-(pyrimidin-2-yl)piperazin-1-yl]methyl}piperazin-1-yl]ethan-1-one, dihydrochloride] | < 100 nM |  | < 100 nM | 
C[C@@H]1CN(CC(=O)N2CC(C)(C)c3cnc(Cc4ccc(F)cc4)cc32)[C@@H](CN2[C@H](C)COC[C@H]2C)CN1 [Example 55, 2-[(2R,5R)-2-{[(3R,5R)-3,5-Dimethylmorpholin-4-yl]methyl}-5-methylpiperazin-1-yl]-1-{6-[(4-fluorophenyl)methyl]-3,3-dimethyl-1H,2H,3H-pyrrolo[3,2-c]pyridin-1-yl}ethan-1-one, dihydrochloride] | < 100 nM |  | < 100 nM | 
CCCC(F)(F)c1cc2c(cn1)C(C)(C)CN2C(=O)CN1C[C@@H](C)NC[C@@H]1CN1CCN(C(C)=O)C[C@H]1C [Example 60, 2-[(2R,5R)-2-{[(2R)-4-Acetyl-2-methylpiperazin-1-yl]methyl}-5-methylpiperazin-1-yl]-1-[6-(1,1-difluorobutyl)-3,3-dimethyl-1H,2H,3H-pyrrolo[3,2-c]pyridin-1-yl]ethan-1-one, dihydrochloride] | < 100 nM |  | < 100 nM | 
C[C@@H]1CN(CC(=O)N2CC(C)(C)c3cnc(Cc4ccc(F)cc4)cc32)[C@@H](CN2CCOC[C@@]2(C)CO)CN1 [Example 62, 1-{6-[(4-Fluorophenyl)methyl]-3,3-dimethyl-1H,2H,3H-pyrrolo[3,2-c]pyridin-1-yl}-2-[(2R,5R)-2-{[(3R)-3-(hydroxymethyl)-3-methylmorpholin-4-yl]methyl}-5-methylpiperazin-1-yl]ethan-1-one, dihydrochloride] | < 100 nM |  | < 100 nM | 
C[C@@H]1CN(CC(=O)N2CC(C)(C)c3nnc(Cc4ccc(F)cc4)cc32)[C@@H](CN2[C@H](C)COC[C@H]2C)CN1 [Example 87, 2-[(2R,5R)-2-{[(3R,5R)-3,5-Dimethylmorpholin-4-yl]methyl}-5-methylpiperazin-1-yl]-1-{3-[(4-fluorophenyl)methyl]-7,7-dimethyl-5H,6H,7H-pyrrolo[3,2-c]pyridazin-5-yl}ethan-1-one dihydrochloride] | < 100 nM |  |  | < 1000 nM
C[C@@H]1CN(CC(=O)N2CC(C)(C)c3cc(C#N)c(Cc4ccc(F)cc4)cc32)[C@@H](CN2[C@H](C)COC[C@H]2C)CN1 [Example 92, 1-{2-[(2R,5R)-2-{[(3R,5R)-3,5-Dimethylmorpholin-4-yl]methyl}-5-methylpiperazin-1-yl]acetyl}-6-[(4-fluroophenyl)methyl]-3,3-dimethyl-2,3-dihydro-1H-indole-5-carbonitrile dihydrochloride] | < 100 nM |  | < 100 nM | 
